This note sets out measurements from PMC5859151.

Protein sequences, listed by entry. Tags and fused reporters are not part of them. Lines headed by an entry give the natural chain unless they say otherwise; changes in a name come on top. Chains listed by the source or under a name are the forms on record and can include a tag or linker.
UniProt Q99942: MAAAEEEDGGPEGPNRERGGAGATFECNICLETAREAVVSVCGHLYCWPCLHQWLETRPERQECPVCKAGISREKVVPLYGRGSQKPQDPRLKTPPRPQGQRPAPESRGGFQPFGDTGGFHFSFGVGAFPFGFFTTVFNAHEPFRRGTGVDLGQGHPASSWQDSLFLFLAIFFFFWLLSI
CFTRΔF508, full-length, produced in TNT T7 coupled reticulocyte lysate (P13569, form named): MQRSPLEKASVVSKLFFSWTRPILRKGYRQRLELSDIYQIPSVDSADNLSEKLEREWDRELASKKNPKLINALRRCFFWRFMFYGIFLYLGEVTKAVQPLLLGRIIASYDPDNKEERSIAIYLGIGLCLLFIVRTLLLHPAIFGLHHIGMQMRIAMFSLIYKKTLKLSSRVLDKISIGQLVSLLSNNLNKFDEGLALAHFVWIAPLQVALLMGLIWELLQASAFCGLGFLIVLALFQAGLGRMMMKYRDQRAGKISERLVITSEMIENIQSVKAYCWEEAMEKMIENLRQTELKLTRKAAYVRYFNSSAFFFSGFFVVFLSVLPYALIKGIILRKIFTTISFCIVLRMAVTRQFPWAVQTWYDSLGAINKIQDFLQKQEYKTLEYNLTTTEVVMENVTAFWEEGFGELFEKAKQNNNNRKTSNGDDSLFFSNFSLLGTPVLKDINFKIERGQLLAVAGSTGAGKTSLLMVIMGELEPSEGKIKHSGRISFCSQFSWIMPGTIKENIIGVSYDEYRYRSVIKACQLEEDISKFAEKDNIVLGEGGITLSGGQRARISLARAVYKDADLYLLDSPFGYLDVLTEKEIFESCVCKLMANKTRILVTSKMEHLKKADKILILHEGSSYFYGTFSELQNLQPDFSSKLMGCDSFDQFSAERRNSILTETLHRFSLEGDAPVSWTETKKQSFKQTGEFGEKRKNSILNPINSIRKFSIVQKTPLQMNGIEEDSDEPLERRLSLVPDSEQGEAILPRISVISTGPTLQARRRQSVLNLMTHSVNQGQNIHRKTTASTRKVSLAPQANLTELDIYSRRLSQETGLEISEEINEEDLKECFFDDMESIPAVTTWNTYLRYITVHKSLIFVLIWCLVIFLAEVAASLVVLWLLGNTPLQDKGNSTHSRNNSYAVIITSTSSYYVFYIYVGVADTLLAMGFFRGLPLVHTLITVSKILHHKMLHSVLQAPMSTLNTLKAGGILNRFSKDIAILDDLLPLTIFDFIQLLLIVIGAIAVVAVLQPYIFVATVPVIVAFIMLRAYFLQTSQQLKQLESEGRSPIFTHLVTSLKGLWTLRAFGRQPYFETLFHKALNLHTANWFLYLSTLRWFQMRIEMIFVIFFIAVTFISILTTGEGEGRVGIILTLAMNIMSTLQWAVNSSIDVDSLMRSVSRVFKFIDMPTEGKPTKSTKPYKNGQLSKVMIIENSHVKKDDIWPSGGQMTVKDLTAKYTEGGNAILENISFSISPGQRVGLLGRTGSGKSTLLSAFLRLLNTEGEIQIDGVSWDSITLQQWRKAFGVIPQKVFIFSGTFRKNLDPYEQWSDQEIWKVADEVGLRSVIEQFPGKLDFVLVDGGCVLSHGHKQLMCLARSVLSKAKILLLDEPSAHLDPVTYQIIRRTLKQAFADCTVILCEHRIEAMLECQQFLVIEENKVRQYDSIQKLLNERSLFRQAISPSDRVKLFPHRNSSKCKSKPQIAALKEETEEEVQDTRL

Results are given in words; binding and its absence hold for the method and conditions named. Binding seen in cells or lysates may run through a third protein. Some results given as binding are weak or reduced against the parent protein; the word gives no strength. For some assays here: Sequences can lack the tags named with a protein.

The target in assay [1] is T1, VIMP (Selenoprotein S), endogenous (human (endogenous in CFBE41o−-CFTRΔF508 cells; cell line of Fig. 4A not stated)) (UniProt Q9BQE4).
T1 sequence (chain, selenocysteine (position not printed)): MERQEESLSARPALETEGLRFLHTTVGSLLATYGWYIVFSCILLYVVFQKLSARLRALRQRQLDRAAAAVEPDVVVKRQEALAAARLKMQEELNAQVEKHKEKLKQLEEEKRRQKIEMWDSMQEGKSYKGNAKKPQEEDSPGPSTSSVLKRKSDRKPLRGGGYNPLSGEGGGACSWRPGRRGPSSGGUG
Briefly: co-IP; extracts of CFBE41o−-CFTRΔF508 cells; IP with anti-VIMP or anti-CFTR antibody (pre-immune IgG as control), Protein A/G Dynabeads; lysis buffer 50 mM HEPES, 150 mM NaCl, 1 mM EDTA, 1% NP40, 10% glycerol; immunoblotting. A general note: Immunoblotting shows a protein as a band on a membrane.

Assay [2] has as its target T1, VIMP (Selenoprotein S), endogenous (human (endogenous in CFBE41o−-CFTRΔF508 cells; cell line of Fig. 4A not stated)). Kind of assay: co-IP; endogenous proteins in cell extracts (cell line not stated); reciprocal IP with anti-VIMP or anti-RNF5 antibody (pre-immune IgG as control); immunoblotting.
Assay [3] has as its target RNF5 E3 ubiquitin ligase, endogenous (human (endogenous; cell line not stated, only human lines are used in the paper)) (UniProt Q99942). The assay is described as above.
Assay [4] concerns the target CFTRΔF508 expressed in CFBE41o− cells (human) (UniProt P13569). Kind of assay: co-IP; extracts of CFBE41o−-CFTRΔF508 cells; IP with anti-VIMP or anti-CFTR antibody (pre-immune IgG as control), Protein A/G Dynabeads; lysis buffer 50 mM HEPES, 150 mM NaCl, 1 mM EDTA, 1% NP40, 10% glycerol; immunoblotting.
Assay [5] addresses CFTRΔF508, full-length, produced in TNT T7 coupled reticulocyte lysate (human) (UniProt P13569). Kind of assay: co-IP; CFTRΔF508 and Flag-VIMP made together in TNT T7 coupled reticulocyte lysate (30 °C, 90 min), diluted with cell lysis buffer; IP with anti-CFTR antibody and Protein G Dynabeads at room temperature for 1 h; immunoblotting with anti-VIMP and anti-CFTR.

As to “CFTRΔF508 expressed in CFBE41o− cells (from UniProt P13569 1-1480)”, in assay [1], the binding result was “binds”. Take “RNF5 E3 ubiquitin ligase, endogenous (from UniProt Q99942 1-180) (enzyme)”: the binding result in assay [2] is “binds”.

B1: VIMP (Selenoprotein S), endogenous (protein, UniProt Q9BQE4 1-189)
chain: T1 sequence (chain, selenocysteine (position not printed))
modifications: selenocysteine (position not given)
Consider B1, for which the binding entry in assay [3] and in assay [4] was “binds” throughout.

B2: Flag-VIMP, full-length, produced in TNT T7 coupled reticulocyte lysate (protein, UniProt Q9BQE4 1-189)
chain: T1 sequence (chain, selenocysteine (position not printed))
Regarding B2, the binding entry in assay [5] was “binds”.
